These are yes or no findings as the source states them, for the method shown. Some results given as binding are weak or reduced against the parent protein; the word gives no strength.
Molecular target: cynomolgus monkey CD47 on engineered CHO-K1 cells (cynomolgus monkey)
Experiment: FACS on engineered CD47-expressing cells

B1: W3455-4.9.9-uIgG4.SPL (antibody, V domains shown)
VH: EVQLLESGGGLVQPGGSLRLSCAASGFTFSNFAMSWVRQAPGKGLEWVSTISASGGRTFYADSVKGRITISRDNSKNTLFLQMNGLRAEDTAVYYCAKEGSFGEGVDPWGQGTLVTVSS
VL: SYEMTQPPSVSVSPGQTARITCSGDALPKKYAYWYQQKSGQAPVLVIYEDNKRPSGIPERFSGSSSGTMATLTISGAQVEDEADYYCYSTDISGNHWVFGGGTELTVLG
B1 was tested, and the binding was “binds”.

— patent US20220403023A1
